# Reference: patent US20260166068A1, “COMPOSITION FOR PROMOTING DEVELOPMENT OF BRAIN FUNCTIONS IN CHILDREN” (Meiji Co., Ltd., priority 2022, published 2026)
# Experiment: LC-MS/MS determination of NAD-related substances in 1-month breast milk
# Set-up: species or system human
# Conditions: for Concentration in 1-month breast milk, first quartile / Concentration in 1-month breast milk, maximum value / Concentration in 1-month breast milk, minimum value / Concentration in 1-month breast milk, second quartile (median) / Concentration in 1-month breast milk, third quartile: 150 samples, FIG. 3
smiles,measurement,value
"NC(=O)c1ccc[n+]([C@@H]2O[C@H](CO)[C@@H](O)[C@H]2O)c1 [NR, nicotinamide riboside]","Concentration in 1-month breast milk, first quartile",0.050 µg/mL
same,"Concentration in 1-month breast milk, maximum value",1.532 µg/mL
same,"Concentration in 1-month breast milk, minimum value",0.006 µg/mL
same,"Concentration in 1-month breast milk, second quartile (median)",0.119 µg/mL
same,"Concentration in 1-month breast milk, third quartile",0.422 µg/mL
"O=C(O)c1cccnc1 [NA, nicotinic acid]","Concentration in 1-month breast milk, first quartile",0.000 µg/mL
same,"Concentration in 1-month breast milk, maximum value",0.002 µg/mL
same,"Concentration in 1-month breast milk, minimum value",0.000 µg/mL
same,"Concentration in 1-month breast milk, second quartile (median)",0.000 µg/mL
same,"Concentration in 1-month breast milk, third quartile",0.002 µg/mL
"NC(=O)c1ccc[n+]([C@@H]2O[C@H](COP(=O)([O-])O)[C@@H](O)[C@H]2O)c1 [NMN, nicotinamide mononucleotide]",Mean NMN concentration in 1-month breast milk,3.089 µg/mL
same,"Concentration in 1-month breast milk, first quartile",2.352 µg/mL
same,"Concentration in 1-month breast milk, maximum value",8.043 µg/mL
same,"Concentration in 1-month breast milk, minimum value",0.058 µg/mL
same,"Concentration in 1-month breast milk, second quartile (median)",3.075 µg/mL
same,"Concentration in 1-month breast milk, third quartile",3.758 µg/mL
